# Assay results taken from the supplement of paper PMC10338343.
# ± gives the standard deviation. Only a part is listed here, and it is no random draw. The uncertainty is large for many entries.
# System: MILI (PIWIL2) piRISC loaded with L1MC piRNA (26 nt)
# Assay: pre-steady-state target cleavage rate (min^-1); MIWI and MILI are mouse PIWI proteins and EfPiwi is from a freshwater sponge; tags in brackets are library labels; higher = faster piRNA-guided slicing of the target
# Settings: guide: L1MC piRNA 5'p-UAACUAAAUACUAUGCAAGCUGUAGG; auxiliary factor: 500 nM mouse GTSF1
# Description: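 Cleave-'n-Seq: a library of target RNAs (target site embedded in constant flanks, ACAGCATTCCGCGTTAGTGATATCCG... 5' flank; DNA-blocked outside the site) at 0.1 nM was incubated with 1 nM active mouse MILI or MIWI piRISC (synthetic 5'-monophosphorylated piRNA guide) with or without 500 nM mouse GTSF1 at 33 °C for 1 min to 16 h. Uncleaved targets were sequenced and normalised to non-target controls, and the pooled three trials were fitted to a burst-and-steady-state model to give the pre-steady-state cleavage rate (min^-1; k3 is constrained to at most 1e-4). Sequence is the target site only; target names encode pairing extent (gX:gY) and contiguous / 1-mismatch / 2-mismatch / bulge geometry. Fits with R² ≤ 0 are excluded.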
row,Sequence,pre-steady-state target cleavage rate
1,UCCUGGAUGAGCUUCGUUAGUAUUUAGUUA,0.00309 ± 0.0037
2,UCCUCCUACAGCUUGGAUAGUAAUUAGUUA,0.25 ± 0.024
3,UCCUCCUACAGCUUCCAUUGUAUUUAGUUA,0.0834 ± 0.015
4,UCCUCCUACAGCUACGAUAGUAUUUAGAAA,0.13 ± 0.029
5,UCCUCCUACAGCUUGCAUAGUAUUUAGAUUA,0.122 ± 0.022
6,UCCUGGAUCAGCUUGGAUAGUAUUUAGAUA,0.0949 ± 0.016
7,UCCUGGAUGUCCUUGCAUUGUAUAUAGUUA,0.0803 ± 0.022
8,UCCUGGAUCAGCUUGCAUAGUAUUAAGAUA,0.0716 ± 0.025
9,UCCUGGAACAGCUUGCAUUCUAUUUAGUUA,0.0609 ± 0.014
10,UCCUGCUACAGCUUGCAUAGUAUUAUCUUA,0.16 ± 0.035
11,UCCUGCAACAGCUUCCAUAGUAUUUAGUUA,0.112 ± 0.03
12,UCCUGGAUGUCGUUGGAUAGUAUUUAGUUA,0.0108 ± 0.0042
13,UCCUGGAUGUCGAAGGAUAGUAUAUAGUUA,0.000148 ± 0.045
14,UCCUGGAUGUCGUUGCAUAGUAUUUUCAAA [g6:g18:cont:t1A],0.00256 ± 0.0059

# Same assay, conditions: guide: L1MC piRNA 5'p-UAACUAAAUACUAUGCAAGCUGUAGG; auxiliary factor: none (no GTSF1)
row,Sequence,pre-steady-state target cleavage rate
1,UCCUCCUACAGCAAGCAUAGUAUUUUCAAA,0.00137 ± 0.004
2,UCCUGGAUGAGCUUCGUUAGUAUUUAGUUA,0.000836 ± 0.0069
3,UCCUCCUACAGCUUGGAUAGUAAUUAGUUA,0.00499 ± 0.0021
4,UCCUCCUACAGCUUCCAUUGUAUUUAGUUA,0.00238 ± 0.003
5,UCCUCCUACAGCUACGAUAGUAUUUAGAAA,0.000529 ± 0.0094
6,UCCUGGUACAGCUUGCAAAGUAUUUACUUA,0.00161 ± 0.0037
7,UCCUGGAUGAGCUUGCAUAGUAUUAACAAA,0.00075 ± 0.0071
8,UCCUGGAUGUCGUUGCAUUCAAUUUAGUUA,0.000402 ± 0.013
9,UCCUCCUACAGCUUGCAUAGUAUUUAGAUUA,0.00237 ± 0.0032
10,UCCUGGAUGAGCUUCCAUAGUAUUUAGAAA,0.000554 ± 0.0087
11,UCCUGGAUGUGCUUGCAUAGUAUUUUCUUA,0.000693 ± 0.008
12,UCCUGGAUGUCGAUGCAUUGUAUUAAGUUA,0.000314 ± 0.016
13,UCCUGGAUCAGCUUGGAUAGUAUUUAGAUA,0.0013 ± 0.0041
14,UCCUGGAUGUCCUUGCAUUGUAUAUAGUUA,0.00438 ± 0.0024
15,UCCUGGUACAGCUUGCAUAGUAAUUACAAA,0.00124 ± 0.0053
16,UCCUGGAUCAGCUUGCAUAGUAUUAAGAUA,0.00179 ± 0.0034
17,UCCUGGAACAGCUUGCAUUCUAUUUAGUUA,0.00151 ± 0.0041
18,UCCUGCUACAGCUUGCAUAGUAUUAUCUUA,0.00154 ± 0.0042
19,UCCUGGAUGUCGAACCAUAGUAUUUCGUUA,0.000129 ± 0.031
20,UCCUGGAUGUCGAAGCUAGUAUUUAGUUA,0.00046 ± 0.01
21,UCCUGGAUGAGGAAGCAUAGUAUUUAGAAA,0.00061 ± 0.0092
22,UCCUGCAACAGCUUCCAUAGUAUUUAGUUA,0.00138 ± 0.0053
23,UCCUGGAUGUCGUUGGAUAGUAUUUAGUUA,0.000938 ± 0.0064
24,UCCUCCUACAGCUUGCUAUGUAUUUACAAA,0.00076 ± 0.0052
25,UCCUGGAUGUCGUUGCAUAGUAUUAUGUUA,0.00224 ± 0.0047
26,UCCUGGAUGUCGUUGCAUAGUAUUUUCAAA [g6:g18:cont:t1A],0.000721 ± 0.0081
